# Screening data, single-dose tests

Protein sequences, listed by entry. Tags and fused reporters are not part of them. Residues count along the entry.
UniProt Q4DA54, 1-478: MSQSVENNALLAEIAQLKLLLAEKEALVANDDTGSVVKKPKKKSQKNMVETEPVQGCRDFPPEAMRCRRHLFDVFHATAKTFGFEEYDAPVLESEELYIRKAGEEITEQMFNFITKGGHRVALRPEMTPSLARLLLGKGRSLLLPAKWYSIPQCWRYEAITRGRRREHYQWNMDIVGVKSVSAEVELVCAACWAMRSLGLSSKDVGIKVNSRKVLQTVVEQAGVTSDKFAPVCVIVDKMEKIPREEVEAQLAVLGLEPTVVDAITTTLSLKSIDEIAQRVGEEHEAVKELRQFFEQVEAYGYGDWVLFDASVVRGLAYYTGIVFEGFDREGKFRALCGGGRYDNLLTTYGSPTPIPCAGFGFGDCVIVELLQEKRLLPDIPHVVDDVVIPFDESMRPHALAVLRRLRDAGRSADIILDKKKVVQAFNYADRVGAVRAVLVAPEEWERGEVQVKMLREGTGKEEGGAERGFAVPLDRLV
UniProt A4I591, 1-473: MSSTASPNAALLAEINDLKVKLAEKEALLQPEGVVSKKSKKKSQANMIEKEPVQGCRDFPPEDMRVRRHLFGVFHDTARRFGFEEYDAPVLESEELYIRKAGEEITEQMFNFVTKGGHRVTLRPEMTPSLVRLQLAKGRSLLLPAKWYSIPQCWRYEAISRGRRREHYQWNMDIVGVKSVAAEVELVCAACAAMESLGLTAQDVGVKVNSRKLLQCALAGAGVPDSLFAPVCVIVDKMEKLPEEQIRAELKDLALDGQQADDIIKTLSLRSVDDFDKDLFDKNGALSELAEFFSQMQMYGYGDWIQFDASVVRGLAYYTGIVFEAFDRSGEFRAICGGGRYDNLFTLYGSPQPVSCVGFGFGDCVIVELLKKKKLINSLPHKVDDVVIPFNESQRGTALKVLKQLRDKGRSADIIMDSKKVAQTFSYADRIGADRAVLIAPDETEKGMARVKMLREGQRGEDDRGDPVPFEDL
UniProt Q8IDJ8, 1-583: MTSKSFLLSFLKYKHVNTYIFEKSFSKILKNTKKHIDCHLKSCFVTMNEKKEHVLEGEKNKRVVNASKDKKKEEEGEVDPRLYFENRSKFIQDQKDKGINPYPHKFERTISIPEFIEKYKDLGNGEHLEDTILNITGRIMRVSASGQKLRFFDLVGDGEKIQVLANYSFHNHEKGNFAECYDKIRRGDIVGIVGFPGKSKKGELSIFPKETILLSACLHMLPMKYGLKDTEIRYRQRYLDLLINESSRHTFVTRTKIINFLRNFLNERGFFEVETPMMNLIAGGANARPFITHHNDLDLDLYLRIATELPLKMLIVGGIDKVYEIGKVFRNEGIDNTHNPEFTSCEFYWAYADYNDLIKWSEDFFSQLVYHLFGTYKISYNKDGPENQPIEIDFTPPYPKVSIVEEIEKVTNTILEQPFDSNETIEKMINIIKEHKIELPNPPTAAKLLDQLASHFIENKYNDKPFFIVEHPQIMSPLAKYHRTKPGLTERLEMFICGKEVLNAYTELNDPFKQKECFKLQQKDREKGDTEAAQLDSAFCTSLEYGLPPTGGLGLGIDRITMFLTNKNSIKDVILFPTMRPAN

TcHisRS: 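Enzyme assay of histidyl-tRNA synthetase; the read-out is not stated. Target: Histidine-tRNA ligase, Trypanosoma cruzi CL Brener (UniProt Q4DA54). Concentration: 30 µM. Direction is inferred from retests: higher values go with stronger inhibition. Size under these conditions: about 69,000 compounds, about 31 of them at 50% or above in at least one test.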
LiHisRS: 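Enzyme assay of histidyl-tRNA synthetase; the read-out is not stated. Target: Histidine-tRNA ligase, Leishmania infantum (UniProt A4I591). Concentration: 30 µM. The record gives no direction; compounds that gave an IC50 in retests scored well above the rest, so higher reads as stronger inhibition. The assay is labelled LdHisRS but filed under L. infantum. Size under these conditions: about 69,000 compounds, about 410 of them at 50% or above in at least one test.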
PfKRS1: 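Lysine-tRNA ligase, Plasmodium falciparum 3D7 (UniProt Q8IDJ8). Enzyme assay of the cytosolic lysyl-tRNA synthetase in 384-well plates, read by luminescence. Compounds at 30 µM. Direction is inferred from only a few compounds that gave an IC50; most scored high, so higher reads as stronger inhibition. Of about 69,000 compounds tested this way, about 49 (0.071%) reached 50% or more in at least one test.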

Results are given as percent effect. How 0% and 100% were set is not recorded. Most values in the screen are low, and negative values occur. This is an unselected part of the compounds tested.

Compound,TcHisRS,LiHisRS,PfKRS1
Cc1nc(O)cc(CN2CC=C(c3cnn(C(C)(C)C)c3)CC2)n1,2.186,13.7,7.168
CN(C(=O)c1ccccc1NCC(=O)O)C(C1CC1)C1CC1,7.463,-4.196,3.516
Cc1ccc(CC(=O)N2CCN(CC(O)C(C)(C)C)CC2)cn1 (centres unmarked),6.509,7.143,-0.7173
Cc1cc(CN2CCN(C(c3ccccc3)c3ccccc3)CC2)no1,5.263,-23.6,4.468
Cc1ccoc1C(=O)NC(CC(C)C)C(=O)N1CCC(CO)CC1 (centres unmarked),-2.105,8.219,-6.018
CCc1nccc(CN2CCCC(CNC(=O)c3occc3C)C2)n1 (centres unmarked),-3.518,16.8,5.479
COc1ccc(CN2CC[C@H](NC(C)=O)[C@@H](O)CC2)c(F)c1,-2.222,16.49,3.373
Cc1ccccc1S(=O)(=O)N1CCCCC1c1ccn[nH]1 (centres unmarked),1.075,8.571,5.124
O=C(NCc1ccccc1)N1C[C@H]2CCN[C@H]2C1,1.942,-1.923,-0.9657
CN1CC(=O)N(c2ccsc2)CC12CCN(S(C)(=O)=O)C2 (centres unmarked),-3.743,17.31,6.467
O=C(c1cccnc1)N1CCC2(CC1)CN(c1ccccn1)CCO2,4.202,13.76,4.515
Cc1nonc1CN(C)Cc1nc(-c2ccccc2Cl)oc1C,-0.5128,4.762,-2.351
CCOCC(=O)N(Cc1ccco1)c1ccc(OC)c(F)c1,7.937,2.941,5.393
Cc1cc(C(=O)N2C[C@@H]3COC[C@]3(COCc3cccnc3)C2)no1,0,12.62,-1.926
CCOc1cccc(CNC(=O)c2cnn(CC)c2C(F)(F)F)c1,3.659,21.05,6.971
Cn1ccnc1CN1CCCN(C(=O)c2ccc(O)nc2)CC1,1.734,2.679,0.3309
CCn1ccnc1C1CCN(Cc2cccc(Cl)c2)CC1,15.06,19.78,-0.4182
Cn1nc(C(=O)NCc2ccc(Cl)cc2)c2c1CCS(=O)(=O)C2,6.087,6.897,-2.919
CC(C)c1nccc(CN(C)Cc2cnn(-c3ccccc3)c2)n1,16.08,29.41,-3.461
Nc1ncncc1-c1noc([C@@H]2CCCN2CC2CC2)n1,0,-4.054,4.086
O=C(C1CCN(c2nc3nc[nH]c(=O)c3s2)CC1)N1CCCCC1,8.911,21.74,8.151
COCC(C)(CCO)NC(=O)Nc1c(F)cccc1Br (centres unmarked),1.948,11.29,2.698
COCCN1CCC(c2nc3c([nH]2)CC(C)(C)CNC3=O)CC1,-1.058,12.12,-2.205
CN(C)S(=O)(=O)c1ccc(CN2CCCC2CO)o1 (centres unmarked),1.515,10.61,3.662
Cc1cc2[nH]c(=O)oc2cc1S(=O)(=O)N1C[C@@H](N(C)C)[C@H](C(C)C)C1,2.146,13.11,6.754
Cc1n[nH]c(C)c1-c1cnc(CC2CCN(C)C2)cn1 (centres unmarked),-0.5464,3.65,2.967
CN1CCN(c2ncccc2CNc2ncccc2C#N)CC1,-1.695,18.87,2.99
O=C1c2cc(Br)cc(Br)c2OCC1(CN1CCCC1)CN1CCCC1,13.87,24.74,1.757
COc1ccc(-c2noc(CN3CCOCC3C)n2)cc1OC (centres unmarked),2.256,14.29,6.02
NC(=O)Cn1ccnc1C1CCCN(Cc2ccccc2OC(F)F)C1 (centres unmarked),11.76,11.9,4.229
CC(C)c1noc(C2CCCN2S(=O)(=O)N2CCCCCC2)n1 (centres unmarked),0,16.42,0.2111
O=C1CSC(c2ccccc2)c2c(n(C3CCOCC3)[nH]c2=O)N1 (centres unmarked),0.5848,7.895,5.237
CC(C)c1noc(CN2CCN(C(=O)c3cc(Cl)ccc3F)CC2)n1,0.5814,12.5,1.45
CCN1CCC(CC(=O)NCCc2nc(O)cc(O)n2)CC1,3.478,20,3.021
CCN(C)c1ccc(C(=O)N(CCOC)Cc2ccccn2)cc1,-2.075,18.45,-4.583
N#Cc1cc(F)c(N2CCC(NS(=O)(=O)c3cccs3)CC2)c(F)c1,6.098,13.25,1.989
CN(C)C(=O)[C@@H]1CCO[C@@H]2CCN(Cc3ccccc3)C[C@@H]21,5.882,0,8.658
CN(C)C[C@H]1OC[C@@H]2CCN(C(=O)c3cccn3C)C[C@@H]21,2.542,9.434,1.701
C[S+]([O-])c1nncn1CC(=O)c1ccc(OC(F)F)cc1 (centres unmarked),1.163,13.11,6.974
O=C(c1ccc(C2CCCO2)s1)N1CCCOCC1 (centres unmarked),2.326,4.918,2.013
Cc1nccn1CCC(=O)N1CCC2(CCC(=O)N(CC3CC3)C2)CC1,9.091,22.34,6.148
O=C(CC1CCc2ccccc21)N1CCC(C(=O)O)(n2ccnc2)CC1 (centres unmarked),1.031,-5.495,2.466
CC(C)C(O)C(C)(C)CNC(=O)NCc1ccc(-n2cncn2)cc1 (centres unmarked),-3.488,9.836,4.527
Cc1[nH]ccc1C(=O)N1CCC(c2nnc(Cn3ccnc3)n2C)CC1,0,7.619,8.953
O=S(=O)(NCc1ccnc(-n2ccnc2)c1)c1cncc(Cl)c1,7.182,2.073,1.61
CCc1ncnc2c1CCN(Cc1ccccn1)CC2,4.918,-1.942,-0.3149
Cc1nc(-c2ccco2)ccc1C(=O)N1CCn2c(C)nnc2C1,5.143,25.42,0.9866
O=C(C1CCCC1)N1CCC2(CC1)OCCO2,4.523,6.742,1.477

Some entries from above, unchanged:

Compound,TcHisRS,LiHisRS,PfKRS1
COc1ccc(CN2CC[C@H](NC(C)=O)[C@@H](O)CC2)c(F)c1,-2.222,16.49,3.373
CC(C)C(O)C(C)(C)CNC(=O)NCc1ccc(-n2cncn2)cc1 (centres unmarked),-3.488,9.836,4.527
Cc1nc(-c2ccco2)ccc1C(=O)N1CCn2c(C)nnc2C1,5.143,25.42,0.9866
CN(C)S(=O)(=O)c1ccc(CN2CCCC2CO)o1 (centres unmarked),1.515,10.61,3.662
Cn1ccnc1CN1CCCN(C(=O)c2ccc(O)nc2)CC1,1.734,2.679,0.3309

From ChEMBL document CHEMBL3988442, “University of Dundee, Small-Polar-MMV Screening Library” (2021).